The text below walks through data of paper PMC5377257.

By UniProt entry, the sequences of proteins in these tests, tags left out. Where a name states a change or a piece, a line headed by the entry shows the natural chain unless it says otherwise.
UniProt Q9UEE9: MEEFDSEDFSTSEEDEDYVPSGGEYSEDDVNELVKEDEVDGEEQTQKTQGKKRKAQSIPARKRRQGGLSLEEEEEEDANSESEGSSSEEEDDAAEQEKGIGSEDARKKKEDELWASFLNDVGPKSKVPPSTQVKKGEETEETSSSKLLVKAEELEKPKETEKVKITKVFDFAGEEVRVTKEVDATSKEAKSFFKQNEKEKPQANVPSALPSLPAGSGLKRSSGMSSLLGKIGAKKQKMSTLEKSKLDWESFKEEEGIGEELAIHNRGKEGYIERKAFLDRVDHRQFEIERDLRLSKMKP
UniProt A0A0B7PL88: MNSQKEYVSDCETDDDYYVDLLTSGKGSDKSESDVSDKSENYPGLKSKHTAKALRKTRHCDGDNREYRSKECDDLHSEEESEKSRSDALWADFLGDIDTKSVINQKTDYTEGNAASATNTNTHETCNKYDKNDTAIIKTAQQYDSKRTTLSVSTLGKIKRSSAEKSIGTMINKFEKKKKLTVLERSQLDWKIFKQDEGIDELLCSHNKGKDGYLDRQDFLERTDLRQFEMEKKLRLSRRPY

Results are given in words; binding and its absence hold for the method and conditions named. In cells and extracts the contact can be indirect. Binding calls can cover weak binding; strength is not graded here.

In this experiment the target is V5-CFDP1 (Cranio Facial Development Protein 1 tagged with V5) (human) (UniProt Q9UEE9). The experiment can be described thus: co-IP; cleared lysates of transfected HeLa cells (IP buffer: 50 mM Tris-HCl pH 7.5, 150 mM NaCl, 1% NP-40, 5 mM EGTA, 5 mM EDTA, 20 mM NaF) immunoprecipitated O/N at 4 °C with mouse anti-V5 antibody and protein A/G agarose; Ms IgG as negative control; Western blot. For orientation: A western blot detects proteins with antibodies after separation by electrophoresis.

Regarding Flag-YETI (from UniProt A0A0B7PL88), the binding entry was “binds”.
